Measurements reported in PubChem BioAssay AID504444 (National Center for Advancing Translational Sciences (NCATS), 2011).
The whole screen tested about 360,000 compounds, of which about 7,500 (2.1%) were called active. This list was built around the results that the source calls inconclusive (neither active nor inactive); the mix of calls is not that of the screen. The call rests on the fitted dose curve; in most records, active means well fitted inhibition curve with a large enough effect; inconclusive means small, poorly fitted or top-dose-only effect, or effect the other way; inactive means flat fitted curve, though single readings scatter. Potencies beside an inconclusive call are fits to weak or partial responses and may not hold up.
On the % scale 0 is the no-effect control and ±100 the full control effect; potency means the concentration at half of the fitted maximal effect.

Experiment: Nrf2 qHTS screen for inhibitors; further: nearly all actives have a fitted effect of over 60% in size
Conditions: A549 ARE-Fluc reporter, luciferase luminescence, 18-24 h; activity change, negative = inhibition: at 46 µM (top of the series)
In short: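 Two sequential reads on A549 ARE_Fluc cells exposed to compound for 18-24 h: a CellTiter-Fluor fluorescence read for viability, then a luciferase luminescence read for Nrf2/ARE activity.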
For `COC(=O)c1ccc(-c2ccc(/C=N/NC(=O)CC3(C)OCCCO3)o2)cc1`, the Potency was inconclusive: 29.1 µM [activator, single point].
In the case of `COc1ccc(CN2CCN(C(=O)C3CCC(CNS(=O)(=O)c4ccc(C)cc4)CC3)CC2)c(OC)c1OC` (configuration not stated), the Potency is reported as inconclusive: 32.6 µM [falling, single point].
For `CC(C)(C)c1ccc(C(=O)Nc2ccccc2C(=O)NCCN2CCOCC2)cc1`, the Potency was inconclusive: 20.6 µM [activator, partial curve, poor fit].
With `COc1ccc(CCn2cc3c(c2-c2ccccc2Br)c(=O)n(C)c(=O)n3C)cc1OC` the Potency was inconclusive: 10.3 µM [falling, partial curve, poor fit].
With `Cc1ccc(C(=O)CSc2nnc(-c3ccc4[nH]c(C)c(C)c4c3)o2)cc1C` the Potency was inconclusive: 29.1 µM [falling, single point].
With `Cc1noc(C)c1COC(=O)c1cccc(S(=O)(=O)N2CCCCCC2)c1` the Potency was inconclusive: 25.9 µM [falling, partial curve, poor fit].
For `CCOc1ccc(CC(=O)N2CCN(c3ccc(N4CCOCC4)nn3)CC2)cc1OCC`, the Potency was inconclusive: 0.231 µM [falling, full curve, poor fit].
For `Cc1cc(/C=C2/C(=N)N3C(=NC2=O)SN=C3S(C)(=O)=O)c(C)n1-c1ccc(F)cc1`, the “activity change, negative = inhibition” value was inactive: 18%.
In the case of `CC(C)Cn1cc(C(=O)NCCCOC(C)C)c2c3ccccc3n(C)c2c1=O`, the “activity change, negative = inhibition” value is reported as inactive: 1.13%.
In the case of `CC(C)CC(=O)NC(c1ccccc1Cl)c1c(O)ccc2ccccc12` (configuration not stated), the Potency is reported as inconclusive: 23.1 µM [falling, single point].
With `COC(=O)CNC(c1ccccc1)c1cc(Br)ccc1NC(C)=O` (configuration not stated) the Potency was inconclusive: 16.4 µM [activator, partial curve, poor fit].
For `CCN1CCN(C(=O)CCNC(=O)Cn2ccc3ccccc3c2=O)CC1`, the Potency was inconclusive: 20.6 µM [activator, single point].
With `CCc1ccc(N=c2c([N+](=O)[O-])nn(-c3ccc4c(c3)OCCO4)n2O)cc1` the Potency was inconclusive: 20.6 µM [activator, partial curve].
With `CCc1ccc(S(=O)(=O)c2nnn3c2nc(NCCc2ccccc2)c2sccc23)cc1` the “activity change, negative = inhibition” value was inactive: -82.6%.
In the case of `Cc1cc(N/N=C/c2cccc([N+](=O)[O-])c2)nc(-n2nc(C)cc2C)n1`, the “activity change, negative = inhibition” value is reported as inactive: -24.2%.
In the case of `COc1cc(NC(=O)Cn2ncc3c(=O)oc4ccccc4c32)cc(OC)c1OC`, the “activity change, negative = inhibition” value is reported as inactive: -8.87%.
In the case of `CN(C)c1nc(N/N=C\c2ccc(Cl)c([N+](=O)[O-])c2)nc(Nc2ccc(F)cc2)n1`, the Potency is reported as inconclusive: 29.1 µM [falling, single point].
